According to the supplement of paper PMC12578635:
This is one part of the list. No stated cut-off is given here; in the data, active = 150% or more and inactive = the rest. Most values come without repeats; read them as rough.

Tested on: Staphylococcus aureus JE2-lux inside RAW 264.7 macrophages
Assay: intracellular bacterial bioluminescence relative to DMSO vehicle; higher = higher intracellular bacterial metabolic activity
Settings: 10 µM; treatment time 4 h; gentamicin 50 µg/ml

Intracellular bacterial bioluminescence, active:
Cc1ccc(C(=O)Nc2cc3c4c(c2)CCN4C(=O)CC3)cc1C 156%, CCOc1ccc2nc(NC(=O)CSc3nnc4c(n3)[nH]c3ccccc34)sc2c1 167%, Cc1ccc(C)c(S(=O)(=O)NCCn2c(C(F)(F)F)nc3cccnc32)c1 163%

Intracellular bacterial bioluminescence, inactive:
COc1ccc(NC(=O)c2ccccc2NS(=O)(=O)c2ccc(F)cc2)c([N+](=O)[O-])c1 125%, Cc1nc(C)c(C(=O)N2CCN(S(=O)(=O)c3c(C)nn(Cc4ccccc4)c3C)CC2)s1 70.4%, COc1ccc(-c2nc3c(C)cccn3c2NCc2ccc3c(c2)OCO3)cc1OC 72.6%, Cc1cccc(CNC(=O)c2nn(C)c3c2CN(S(=O)(=O)c2cn(C)cn2)CC3)c1 108%, CCCCNC(=O)c1cnc(N2CCOCC2)nc1C 134%, O=C(CSc1cc[nH]c(=O)n1)NCc1ccccc1 103%, Cc1ccn2c(=O)c(C(=O)NCCCN3CC(C)CC(C)C3)c(O)nc2c1 (stereo not drawn) 142%, CCCNC(=O)CCc1c(C)[nH]c2nc(NCc3cccs3)nn2c1=O 106%, Cc1ccc(SCc2cc(=O)[nH]c(N3CCN(c4ccccc4)CC3)n2)cc1 94.7%, CCCCc1nc(SCc2cccc(C(F)(F)F)c2)c2c(=O)n(C)c(=O)n(C)c2n1 88.1%, O=C(CSC1=NC2(CCCCC2)N=C1c1ccccc1)Nc1ccc2c(c1)OCCO2 99.8%, COc1ccc(Cl)cc1NC(=O)CSc1nc2c(c(=O)n1C)SC(C)C2 (stereo not drawn) 76%, COC(=O)c1sccc1N1Cc2ccncc2C1=O 118%, NC(=O)C1CCN(C(=O)CCCCCn2c(=O)[nH]c3ccsc3c2=O)CC1 116%, COc1ccc(C2=NN(S(C)(=O)=O)C(c3cn(-c4ccccc4)nc3-c3ccc(C)cc3)C2)cc1 (stereo not drawn) 125%, NC(=O)COc1ccc2c(-c3cc4cc(Cl)ccc4oc3=O)cc(=O)oc2c1 121%, N=C1N=C(O)NC(=O)/C1=N/Nc1cccc(Br)c1 123%, O=C1Nc2ccc(CNS(=O)(=O)c3ccccc3)c3cccc1c23 98.2%, CCc1c(C)nc2ncnn2c1Sc1ccc(N(C)C)cc1 79.5%, O=C(Cc1ccc(Cl)cc1)Oc1coc(CSc2ncccn2)cc1=O 114%, Cn1c2ccc(F)cc2c2nnc(SCC(=O)N3CCCc4ccccc43)nc21 68.7%, COC(=O)CSc1ncnc2c1cnn2-c1ccc(F)cc1 74.2%, Cc1cccc2c(O)c(C(=O)NCCN3CCOCC3)cnc12 103%, CSc1nc2ccc3nc(NC(=O)c4cc5ccccc5oc4=O)sc3c2s1 84.7%, Cc1cc(CNC(=O)Cn2cnc3sc(C)cc3c2=O)c2[nH]c(C)c(C)c2c1 83.9%, O=C(Cn1nc(-c2ccccc2)c2cnc3ccc(F)cc3c21)NC1CCCC1 113%, C=CCN1C(=O)SC(CC(=O)Nc2ccc(C)cc2)C1=O (stereo not drawn) 97.7%, Cc1ccc(COc2ccc([N+](=O)[O-])cc2/C=C2\SC(=O)NC2=S)cc1 112%, COc1ccc2[nH]c3nc(SCC(=O)Nc4ccc(C(=O)NC5CC5)cc4)nnc3c2c1 90.1%, Cc1ccccc1C(=O)NC1CC2CCCC(C1)N2C(=S)Nc1ccccc1 (stereo not drawn) 113%, O=C(NCCc1csc(-c2ccc(C(F)(F)F)cc2)n1)c1ccc2c(c1)OCO2 117%, CC(=O)c1cccc(NC(=O)CSc2nnc(Cn3nnc4ccccc43)n2C)c1 99.3%, CCCn1c(=O)c(=O)[nH]c2cc(-c3noc(COc4ccccc4)n3)ccc21 24.5%, O=C1C(=O)N(CCOc2ccc(Cl)cc2)c2ccccc21 83.8%, O=C(NCc1ccccc1)N1CCCC1c1nc(-c2cnccn2)n[nH]1 (stereo not drawn) 101%, CC1CCN(S(=O)(=O)c2ccc(NC(=S)NC(=O)C3CC3)cc2)CC1 77.9%, Cc1ccc(Nc2c(C(=O)NC(C)CCc3ccccc3)cnc3c2c(C)nn3C)cc1 (stereo not drawn) 24.1%, CCOc1ccccc1-n1nnc(C(=O)Nc2ccc(C(=O)O)cc2)c1C 83.4%, CCOc1ccc2ncc3c(-c4ccccc4)nn(CC(=O)Nc4cccc(F)c4)c3c2c1 98.3%, COc1ccc(S(=O)(=O)c2cn(CC(=O)Nc3ccccc3)c3ccc(Cl)cc3c2=O)cc1 93.3%, Cc1cc2c(=O)n(Cc3ccco3)c(SCc3cc(O)[nH]n3)nc2s1 82.4%, Cc1ccc(C)c(-c2nn(-c3ccccc3)cc2/C=C(/C#N)c2nc3ccccc3c(=O)[nH]2)c1 102%, CCOC(=O)C1=C(N)Oc2c(oc(CO)cc2=O)C1c1ccccc1 (stereo not drawn) 123%, O=C(Nc1ccc(-c2ccc(NC(=O)c3cccs3)cc2)cc1)c1cccs1 111%, CCCCOC(=O)Nc1[nH]c(C)c(C(=O)OCC)c1C 95.4%, Brc1cccc2sc(N3CCCC3)nc12 101%, CCC(=O)Nc1cccnc1-c1ccc(C(=O)Nc2ccc(OC)c(Cl)c2)cc1 101%, CCOC(=O)c1nc(Nc2ccc(C)c(Cl)c2)c2c(C)c(C)n(-c3ccccc3)c2n1 93%, CCS(=O)(=O)Nc1ccc(-c2nnc(SCC(=O)Nc3cccc(O)c3)o2)cc1 94.2%, Cc1cc2nc(C3CCN(C(=S)Nc4ccc(F)cc4)CC3)[nH]c2cc1C 76.9%, O=C(CSc1cnc2ccccc2n1)NCc1ccc2c(c1)OCO2 102%, Cn1c(=O)n(CC(=O)N2CCCC2)c(=O)c2cc(S(=O)(=O)Nc3cccc4c3CCCC4)ccc21 68.2%, O=C1CCc2cc(S(=O)(=O)NC3CCN(Cc4ccccc4)C3)ccc2N1 (stereo not drawn) 106%, O=C(Nc1c(C(=O)Nc2ccc3c(c2)OCCO3)oc2ccccc12)c1ccccc1C(F)(F)F 50%, Cc1cc2ccccc2n2c(=O)n(CCNC(=O)c3[nH]ncc3Br)nc12 81.9%
